Results reported in article doi:10.1101/2021.10.29.466387 (bioRxiv, 2021).
No constants are given. Whether binding was seen depends on the method and setting. Binding seen in cells or lysates may run through a third protein. Some results given as binding are weak or reduced against the parent protein; the word gives no strength.

Chains of the proteins cited; added tags and fusions are not shown. Residues count along the entry.
UniProt P77774, residues 20-392: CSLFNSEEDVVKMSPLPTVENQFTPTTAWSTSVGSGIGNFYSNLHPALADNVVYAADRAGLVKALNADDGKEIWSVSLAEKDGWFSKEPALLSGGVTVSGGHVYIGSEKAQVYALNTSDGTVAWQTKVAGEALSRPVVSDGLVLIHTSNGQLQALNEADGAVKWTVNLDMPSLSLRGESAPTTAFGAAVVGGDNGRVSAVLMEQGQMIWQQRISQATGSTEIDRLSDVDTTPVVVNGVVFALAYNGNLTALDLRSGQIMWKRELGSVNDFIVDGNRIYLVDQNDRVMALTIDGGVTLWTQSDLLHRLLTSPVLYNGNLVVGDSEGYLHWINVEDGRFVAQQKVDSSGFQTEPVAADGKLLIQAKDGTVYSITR
UniProt P0AC02, residues 20-245: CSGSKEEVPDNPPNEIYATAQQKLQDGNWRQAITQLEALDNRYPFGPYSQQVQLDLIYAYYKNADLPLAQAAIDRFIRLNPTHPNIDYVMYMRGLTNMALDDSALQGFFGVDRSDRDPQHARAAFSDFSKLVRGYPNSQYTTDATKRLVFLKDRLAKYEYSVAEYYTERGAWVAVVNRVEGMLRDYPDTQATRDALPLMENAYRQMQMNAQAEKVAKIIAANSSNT

What was measured:
BamB (E. coli) = BamB (E. coli) (UniProt P77774); assay: pull-down
BamD (E. coli) = BamD (E. coli) (UniProt P0AC02); assay: pull-down

binding (BamB (E. coli)): no binding
binding (BamD (E. coli)): binds
B1: ^35S-labelled OmpC (natural protein)
chain: MKVKVLSLLVPALLVAGAANAAEVYNKDGNKLDLYGKVDGLHYFSDNKDVDGDQTYMRLGFKGETQVTDQLTGYGQWEYQIQGNSAENENNSWTRVAFAGLKFQDVGSFDYGRNYGVVYDVTSWTDVLPEFGGDTYGSDNFMQQRGNGFATYRNTDFFGLVDGLNFAVQYQGKNGNPSGEGFTSGVTNNGRDALRQNGDGVGGSITYDYEGFGIGGAISSSKRTDAQNTAAYIGNGDRAETYTGGLKYDANNIYLAAQYTQTYNATRVGSLGWANKAQNFEAVAQYQFDFGLRPSLAYLQSKGKNLGRGYDDEDILKYVDVGATYYFNKNMSTYVDYKINLLDDNQFTRDAGINTDNIVALGLVYQF
modifications: ^35S-methionine label
